According to patent publication US6998239:
No constants are given. Whether binding was seen depends on the method and setting. Some entries that bind do so weakly or less than the wild type.

Chains of the proteins cited; added tags and fusions are not shown. Lines headed by an entry give the natural chain unless they say otherwise; changes in a name come on top. Residues count along the entry.
UniProt Q9NPB9: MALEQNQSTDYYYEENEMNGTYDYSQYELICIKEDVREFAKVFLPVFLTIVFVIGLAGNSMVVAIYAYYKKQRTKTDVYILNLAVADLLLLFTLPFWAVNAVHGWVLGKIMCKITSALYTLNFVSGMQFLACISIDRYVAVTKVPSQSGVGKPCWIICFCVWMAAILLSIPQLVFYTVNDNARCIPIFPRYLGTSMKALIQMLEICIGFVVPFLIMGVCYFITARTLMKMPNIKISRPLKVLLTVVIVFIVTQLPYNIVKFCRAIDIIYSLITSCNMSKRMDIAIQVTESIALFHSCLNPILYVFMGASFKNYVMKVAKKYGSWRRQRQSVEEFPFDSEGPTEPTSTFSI
UniProt P84444, residues 24-133: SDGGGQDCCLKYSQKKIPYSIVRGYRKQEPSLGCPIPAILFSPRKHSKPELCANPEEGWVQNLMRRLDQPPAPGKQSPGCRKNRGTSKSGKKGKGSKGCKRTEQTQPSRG

Legend:
[1] = biological target: human CCX CKR with N-terminal Flag epitope, stably expressed on HEK293 cells (human) (UniProt Q9NPB9); assay: displacement of 125I-ELC or 125I-TECK from CCX CKR transfectants, 200 nM cold chemokine
[2] = biological target: human CCX CKR with N-terminal Flag epitope, stably expressed on HEK293 cells (human) (UniProt Q9NPB9); assay: radioligand binding competition on CCX CKR stable transfectants

murine SLC (from UniProt P84444 24-133) (ligand)
binding [1]: binds
binding [2]: binds
